For 1 molecule, T1/2 results are on record in patent US11919896B2, “[1,2,4]triazolo[1,5-a]pyridine compound as JAK inhibitor and use thereof” (Zhuhai United Laboratories Co., Ltd., priority 2018, dated 2024).

The nature of the data set: Pharmacokinetics (PK) test in mice. It is filed as in vivo, mice (C57BL/6). Particulars: male C57BL/6 mice; iv 2 mg/kg, intragastric 15 mg/kg.

On to `N#CC1(C(=O)N2CC3(CCC(c4cccc5nc(NC(=O)C6CC6)nn45)CC3)C2)CC1` [Compound 1-11], for which the T1/2 amounted to 2.99 h.
